This experiment concerns C57BL/6 mice. In words: Oral glucose tolerance test (GTT) in C57BL/6 mice: blood glucose and plasma insulin. Type of experiment: in vivo, mouse. Here is the method:
Fig. 2 Treatment with DS20060511 decreases the blood glucose levels via inducing GLUT4 translocation and increasing skeletal muscle glucose uptake. a, b Blood glucose levels after treatment with DS20060511 (30 mg kg^−1) in C57BL/6 mice that had received continued access to food (a) and mice that had been denied access to food overnight (b) (n = 8). Values shown are means ± SEM. **P < 0.01 vs. 0 min by one-way ANOVA followed by Dunnett’s test. c Blood glucose and plasma insulin levels during oral GTT in the C57BL/6 mice (n = 5–6). The mice received oral administration of vehicle or DS20060511 at the indicated dose, 15 min prior to glucose administration (1.5 g kg^−1). Values shown are means ± SEM. *P < 0.05, **P < 0.01 vs. vehicle by one-way ANOVA followed by Williams’ test. d [^3H]-2-DG uptake in the soleus muscle, gastrocnemius muscle (Gastro.), heart, and white adipose tissue (WAT) at 60 min during the intraperitoneal GTT in the C57BL/6 mice (n = 3). The mice received oral administration of vehicle or DS20060511 (30 mg kg^−1), 15 min prior to glucose administration (1 g kg^−1 glucose containing [^3H]-2-DG). […] Uncropped blots for e can be found in Supplementary Fig. 6.
Mice that had been denied access to food overnight received the indicated oral dose of DS20060511 or vehicle 15 min prior to the glucose load (1.5 g kg^−1, except for eNOS-knockout mice, which received 3.0 g kg^−1). Then, after the oral glucose load, the blood glucose levels were measured using Glutest Every in samples obtained from the tail vein at the indicated timepoints. Plasma insulin concentrations were also measured with an ELISA kit (Morinaga Institute of Biological Science, Yokohama, Japan) in blood samples collected from the tail vein at the indicated timepoints.

Each structure is given as a SMILES string. Where “and” joins values, the source holds several entries; their conditions need not be identical. Equal entries are not always repeated. This continues a long series; more values of the same kind are listed elsewhere.

As to `COc1ccc2c(C)c(C(=O)O)ccc2c1C1C2=C(CC(C)(C)CC2=O)OC2=C1C(=O)CC(C)(C)C2` [DS20060511], the Blood glucose is, setting by setting: (3 mg/kg, 0 min) 88 mg/dL and 105 mg/dL; (3 mg/kg, 15 min) 202 mg/dL and 267 mg/dL; (3 mg/kg, 30 min) 158 mg/dL and 204 mg/dL; (3 mg/kg, 60 min) 197 mg/dL; (3 mg/kg, 90 min) 159 mg/dL and 129 mg/dL; (3 mg/kg, 120 min) 118 mg/dL and 127 mg/dL. Moreover, the Blood glucose reads like this: (3 mg/kg, -15 min) 67 mg/dL and 77 mg/dL; (10 mg/kg, 0 min) 101 mg/dL and 103 mg/dL and 104 mg/dL and 97 mg/dL and 91 mg/dL and 92 mg/dL; (10 mg/kg, 15 min) 197 mg/dL and 196 mg/dL and 212 mg/dL and 203 mg/dL and 169 mg/dL and 187 mg/dL; (10 mg/kg, 30 min) 181 mg/dL and 156 mg/dL and 144 mg/dL and 126 mg/dL and 123 mg/dL and 115 mg/dL; (10 mg/kg, 60 min) 124 mg/dL and 154 mg/dL and 150 mg/dL and 115 mg/dL and 174 mg/dL and 121 mg/dL; (10 mg/kg, 90 min) 110 mg/dL and 123 mg/dL and 124 mg/dL and 107 mg/dL and 112 mg/dL and 111 mg/dL. In addition, the Blood glucose runs as follows: (10 mg/kg, 120 min) 99 mg/dL and 107 mg/dL and 117 mg/dL and 105 mg/dL and 118 mg/dL and 121 mg/dL; (10 mg/kg, -15 min) 82 mg/dL and 94 mg/dL and 75 mg/dL and 81 mg/dL and 79 mg/dL; (30 mg/kg, 0 min) 87 mg/dL and 73 mg/dL and 77 mg/dL and 78 mg/dL and 76 mg/dL; (30 mg/kg, 15 min) 188 mg/dL and 134 mg/dL and 156 mg/dL and 142 mg/dL and 132 mg/dL; (30 mg/kg, 30 min) 130 mg/dL and 118 mg/dL and 107 mg/dL and 114 mg/dL and 104 mg/dL; (30 mg/kg, 60 min) 95 mg/dL and 84 mg/dL and 94 mg/dL and 102 mg/dL and 121 mg/dL. The Blood glucose by setting is: (30 mg/kg, 90 min) 125 mg/dL and 68 mg/dL and 84 mg/dL and 105 mg/dL; (30 mg/kg, 120 min) 80 mg/dL and 75 mg/dL and 89 mg/dL and 99 mg/dL and 103 mg/dL; (30 mg/kg, -15 min) 80 mg/dL and 76 mg/dL and 78 mg/dL and 75 mg/dL and 93 mg/dL.

These data come from article PMC8379256, “A xanthene derivative, DS20060511, attenuates glucose intolerance by inducing skeletal muscle-specific GLUT4 translocation in mice” (Communications Biology, 2021).
